In publication PMC5727232, “Structural basis for genome wide recognition of 5-bp GC motifs by SMAD transcription factors” one finds binding data, which are given here for one substance.

Sequences of proteins named here, by UniProt entry; tags and fusion partners are left off. Residues count along the entry.
UniProt Q13485, residues 10-140: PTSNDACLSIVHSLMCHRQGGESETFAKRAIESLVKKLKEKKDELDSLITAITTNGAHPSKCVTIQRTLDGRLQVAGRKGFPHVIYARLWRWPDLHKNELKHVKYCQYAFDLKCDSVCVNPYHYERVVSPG

In assay [1] the target is human Smad4 MH1 domain (Pro10-Gly140) (human) (UniProt Q13485). In words: NMR 15N backbone relaxation (T1, T2, rotational correlation time); Smad4 MH1 without DNA, 15N relaxation data at two protein concentrations; correlation time 9.5 ns; both purified.
Assay [2] shares this target. In words: SAXS; Smad4 MH1 without DNA, 0.5-4.2 mg/mL, 20 mM Tris pH 7.2, 150 mM NaCl, 10 °C, ESRF BM29; both purified.

No constants are given. Whether binding was seen depends on the method and setting.

Take “human Smad4 MH1 domain (Pro10-Gly140) (from UniProt Q13485 10-140) (domain or fragment)”: the binding entry in assay [1] is listed as “no binding”; in assay [2] it was “no binding (tested: 0.5 to 4.2 mg mL^−1)”.
